Measurements taken from US20230035127A1, “CULTURE AND DIFFERENTIATION OF PLURIPOTENT STEM CELLS” (University of Maryland, College Park, priority 2021, published 2023).

Test system: human eiPSCs
Experiment: RNA sequencing of eiPSC spheroids and cardiac spheroids
Format: cell-based
Text: To investigate the mechanisms for the different outcomes when using different RI concentrations for culturing the eiPSC spheroids in 3D for cardiac differentiation, samples at various stages of the 3D culture and differentiation shown in FIG. 1 were collected and analyzed by RNA-sequencing (RNA-seq). The sample groups and their abbreviations are summarized in Table 1 including undifferentiated eiPSCs on day −2.5 (U), cardiac commitment on day 2.5 (C), cardiac maturation on day 13.5 (M), together with 2D monolayer colonies on day −4 (2D) as a common 2D undifferentiated control for both the 1 (one: […]) and 10 (ten: T) μM RI 3D culture. The raw data of RAN-seq were of high quality with an error rate of no more than 0.03%. The raw data passed quality control were then aligned for mapping to the reference (human genome) with a total mapping rate of 95.8±0.5%. Afterward, the gene expression level was calculated by the number of mapped reads, also known as fragments per kilobase of transcript per million mapped reads (FPKM). Moreover, the global transcriptome of different samples with cluster analysis and hierarchical clustering analysis was carried out with log10 (FPKM+1) on differentially expressed genes within all comparison groups and plotted as a heat-map (FIG. 6), showing the global gene expression pattern of samples together with the samples' hierarchies that match with the different stages of the different samples given in FIG. 1.
For RNA sequencing (RNA-Seq), total RNA was extracted from the eiPSC clumps from 2D culture on day −4 (termed as 2D) and spheroids collected on day −2.5 after 1.5 days in the 3D culture (termed as UO and UT for 1 μM and 10 μM RI conditions, respectively), day 2.5 (termed as CO and CT), and day 13.5 (termed as MO and MT). The DNase I from bovine pancreas was used to remove DNA in samples. The RNA concentration in the samples was measured with Nanodrop and the integrity and quality of RNAs in the samples were confirmed with the Nano RNA Bioanalyzer. Samples with RNA integrity number greater than 9 were used for the preparation of the next-generation sequencing library using the NEB Ultra Directional RNA library preparation kit. Pair-end sequencing was performed by the Illumina HiSeq2500 platform. RNA-seq sequencing data quality was verified by Novogene. Raw reads were mapped to the human reference genome version (hg38) and the gene expression level based on reads per kilobase of exon per million reads mapped for annotated genes was measured and normalized using the Cufflink program. Samples were compared in different combinations and genes with an expression change of more than 1.5 in |log2 fold change| were defined as differentially expressed genes (DEG). Different classes of genes were subjected to functional and pathway analysis with the Gene Ontology (GO) database.

## C[C@@H](N)[C@H]1CC[C@H](C(=O)Nc2ccncc2)CC1.Cl.Cl (relative stereo) [RI, (+)-(R)-trans-4-(1-aminoethyl)-N-(4-pyridyl) cyclo-hexanecarboxamide dihydrochloride]
CO: 1 μM RI, cardiac commitment, day 2.5
  differentially expressed unique genes: 359
CT: 10 μM RI, cardiac commitment, day 2.5
  differentially expressed unique genes: 103
MO: 1 μM RI, cardiac maturation, day 13.5
  differentially expressed unique genes: 549
MT: 10 μM RI, cardiac maturation, day 13.5
  differentially expressed unique genes: 521
UO: 1 μM RI, undifferentiated, day −2.5
  differentially expressed unique genes: 123
UT: 10 μM RI, undifferentiated, day −2.5
  differentially expressed unique genes: 173
